Test results from article PMC6720575.
No constants are given. Whether binding was seen depends on the method and setting.

Tests used:
[1] = molecular target: Ilumatobacter coccineus YM16-304 sucrose 6^F-phosphate phosphorylase (Ilumatobacter coccineus YM16-304); assay: crystal structure; IcSPP at 2.05 Å (space group C222_(1), one chain in the asymmetric unit); TtSPP at 1.83 Å (space group P2_(1)2_(1)2_(1), two chains in the asymmetric unit); both purified
[2] = molecular target: Ilumatobacter coccineus YM16-304 sucrose 6^F-phosphate phosphorylase (Ilumatobacter coccineus YM16-304); assay: SEC + other: dynamic light scattering; Superdex 200 10/300 GL; 100 mM Tris pH 7.5 for IcSPP, 20 mM Bis-Tris pH 7.5 with 150 mM NaCl for TtSPP; apparent molecular weight about 60 kDa, confirmed by dynamic light scattering; both purified
[3] = molecular target: Thermoanaerobacterium thermosaccharolyticum sucrose 6^F-phosphate phosphorylase (Thermoanaerobacterium thermosaccharolyticum) (UniProt D9TT09); assay: crystal structure; IcSPP at 2.05 Å (space group C222_(1), one chain in the asymmetric unit); TtSPP at 1.83 Å (space group P2_(1)2_(1)2_(1), two chains in the asymmetric unit); both purified
[4] = molecular target: Thermoanaerobacterium thermosaccharolyticum sucrose 6^F-phosphate phosphorylase (Thermoanaerobacterium thermosaccharolyticum) (UniProt D9TT09); assay: SEC + other: dynamic light scattering; Superdex 200 10/300 GL; 100 mM Tris pH 7.5 for IcSPP, 20 mM Bis-Tris pH 7.5 with 150 mM NaCl for TtSPP; apparent molecular weight about 60 kDa, confirmed by dynamic light scattering; both purified

Row | Binder | binding [1] | binding [2] | binding [3] | binding [4]
1 | Ilumatobacter coccineus YM16-304 sucrose 6^F-phosphate phosphorylase (enzyme, UniProt A0A6C7EEG6 1-523) MTHAGMKASLPNRVMLNAYPDSIDGDLAGTVRMLQRPEFTDAFGLFYVLPSIFNSDLDRGFSIIDYDLNSDLASAEDLAALDELGIMLKFDMVLNHLSVGSPQFQDLLKHGDDSAFRDFFIDWNEFWEGEGELHADGHVVPSPEHLDRLFMRKPGLPILQVRFPDGSDRFYWNTFYQRVETIDGERSYLGQMDLNAESPRVWTFYRETFEKLARYGAKIVRLDAFAYLHKAVGDTNFFNTPGTWDHLDRLRTISEENGLVLLPEIHGEYGTKIHEELSDRDYPVYDFFFPGLVIDAIDSASNTHLLRWIDEIIERDIATVNMLGCHDGIPVIDLKGGPTGQGLLPDATIEAMISRLLERGGRVKNLYGADGTKVSYYQVNATFFSALGESDARLRLARAIQLFVPGTPQVWYLDLFAGANDVEAADRAGADGHKEINRTNLSAADVEAGLARPIVLDQLEMIRLRNASPAFDGRFEVVPTDDTRLQLRWQNGSTVALLDADLATERFTITHEHDGHTEILGYD | no binding | no binding |  | 
2 | Thermoanaerobacterium thermosaccharolyticum sucrose 6^F-phosphate phosphorylase (enzyme, UniProt D9TT09 1-488) MALKNKVQLITYPDSLGGNLKTLNDVLEKYFSDVFGGVHILPPFPSSGDRGFAPITYSEIEPKFGTWYDIKKMAENFDILLDLMVNHVSRRSIYFQDFLKKGRKSEYADMFITLDKLWKDGKPVKGDIEKMFLRRTLPYSTFKIEETGEEEKVWTTFGKTDPSEQIDLDVNSHLVREFLLEVFKTFSNFGVKIVRLDAVGYVIKKIGTSCFFVEPEIYEFLDWAKGQAASYGIELLLEVHSQFEVQYKLAERGFLIYDFILPFTVLYTLINKSNEMLYHYLKNRPINQFTMLDCHDGIPVKPDLDGLIDTKKAKEVVDICVQRGANLSLIYGDKYKSEDGFDVHQINCTYYSALNCDDDAYLAARAIQFFTPGIPQVYYVGLLAGVNDFEAVKKTKEGREINRHNYGLKEIEESVQKNVVQRLLKLIRFRNEYEAFNGEFFIEDCRKDEIRLTWKKDDKRCSLFIDLKTYKTTIDYINENGEEVKYLV |  |  | no binding | no binding
